The values that follow come from patent publication US20050158313A1.

Results are given in words; binding and its absence hold for the method and conditions named. Some results given as binding are weak or reduced against the parent protein; the word gives no strength.

The test has as its target Reg IV polypeptide (human) (UniProt Q9BYZ8). Put plainly: phage display selection of scFvs on Reg IV.

B1: RGC0145 (scFv)
scFv: EVQLVQSGAEVKKPGSSVKISCEVSGGIFKNYAISWVRQAPGQGLEWMGGSIPMYGTPSYAPKFQGRVTIIADESTSTAYMELSSLRSEDTAMYYCARETTEVDDAFNIWGRGTLVTVSSGGGGSGGGGSGGGGSAQSVLTQPPSVSAAPRQRVTISCSGSSSNIGNNVVNWYQHFPGKAPRLLIFPDSLLSDRFSGSKSGTSASLAISGLQSDDEAEYYCASWDDSLNGLVFGGGTKLTVLG
Consider B1, for which the binding entry is “binds”.

B2: RGD0122 (scFv)
scFv: EVQLLESGEGLVQPGGSLRLSCAASGFTFSSYAMSWVRQAPGKGLEWVSAISGSGGSTYYADSVKGRFTISRDNSKNTLYLQMNSLRAEDTAVYYCATDPYYDSSGYYPFSYWGKGTTVTVSSGGGGSGGGGSGGGGSAQSVLTQPPSVSVAPGQTATITCGGDFATKSVNWYQRKPGQAPVTVIYYSTERPPAIPERFSGSNTGSTATLTISRVEAGDEADYYCQVWDSFTDHRLFGGGTKLTVLG
In the case of B2, the binding result was “binds”.
